These are yes or no findings as the source states them, for the method shown. Some binding calls cover weakened binding; strength is not graded here.
Columns and labels:
[1] = molecular target: Flag-tagged recombinant human GMAD (human) (UniProt Q9HD89); test: phage ELISA
[2] = molecular target: Flag-tagged recombinant human GMAD (human) (UniProt Q9HD89); test: phage display selection of scFvs

Amino acid sequences for entries named in this document (tags omitted). A change or cut given only in a name is not applied to a line headed by its entry.
UniProt Q9HD89: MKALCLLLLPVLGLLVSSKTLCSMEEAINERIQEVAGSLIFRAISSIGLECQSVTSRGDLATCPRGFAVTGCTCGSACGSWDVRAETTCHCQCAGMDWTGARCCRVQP

Binder | binding [1] | binding [2]
GMBC647 (scFv) scFv: EVQLVESGGGLVKPGGSLRLSCAASGFTFSDAWMNWVRQAPGKGLEWVGRIKSKGSGGTIDYAAPVKDRFTISRDDSKNTLYLQMNSLKTEDTALYYCTWDWDFYYGMNVWGQGTTVTVSSGGGGSGGGGSGGGGSQSVLTQPASVSGSPGQSITISCTGTSSDVGGYNYVSWYQQHPGKAPKLMIYEGSKRPSGVSNRFSGSKSGNTASLTISGLQAEDEADYYCSSYTTRSTRVFGGGTKLTVLG | binds | binds
GMBC660 (scFv) scFv: EVQLVQSGGGLVKPGGSLRLSCAASGFIFSDAWMNWVRQAPGKGLEWVGRIKSKGSGGTIDYAAPVKDRFTISRDDSKNTLYLQMNSLKTEDTALYYCTWDWDFYYGMNVWGQGTPVTVSSGGGGSGGGGSGGGGSQSVLTQPASVSGSPGQSITISCTGTSSDVGGYNYVSWYQQHPGKAPKLMIYEGSKRPSGVSNRFSGSKSGNTASLTISGLQAEDEADYYCSSYTTRSTRVFGGGTKLTVLG | binds | binds
GMBC654 (scFv) scFv: EVQLVETGGGLVEPGGSLRLSCAASGFTFSDAWMNWVRQAPGKGLEWVGRIKSKRSGGTIDYAAPVKDRFTISRDDSKNTLYLQMNSLKIEDTALYYCTWDWDFYYGMNVWGKGTTVTVSSGGGGSGGGGSGGGGSQSVLTQPASVSGSPGQSITISCTGTSSDVGGYNYVSWYQQHPGKAPKLMIYEGSKRPSGVSNRFSGSKSGNTASLTISGLQAEDEADYYCSSYTTRSTRVFGGGTKLTVLG | binds | binds
GMBC664 (scFv) scFv: EVQLVETGGALVKPGGSLRLSCAASGFTFSDAWMNWVRQAPGKGLEWVGRIKSKGSGGTIDYAAPVKDRFTISRDDSKNTLYLQMNSLKTEDTALYYCTWDWDFYYGMNVWSRGTMVTVSSGGGGSGGGGSGGGGSQSVLTQPASVSGSPGQSITISCTGTSSDVGGYNYVSWYQQHPGKAPKLMIYEGSKRPSGVSNRFSGSKSGNTASLTISGLQAEDEADYYCSSYTTRSTRVFGGGTKLTVLG | binds | binds

Second part, the binder after the results:

binding [1] | binding [2] | Binder
binds | binds | GMBC658 (scFv) scFv: EVQLVQSGGGLVKPGGSLRLSCAASGFTFSDAWMNWVRQAPGKGLEWVGRIKSKGSGGTIDYAAPVKDRFTISRDDSKNTLYLQMNSLKTEDTALYYCTWDWDFYYGMNVWGRGTTVTVSSGGGGSGGGGSGGGGSQSVLTQPASVSGSPGQSITISCTGTSSDVGGYNYVSWYQQHPGKAPKLMIYEGSKRPSGVSNRFSGSKSGNTASLTISGLQAEDEADYYCSSYTTRSTRVFGGGTKLTVLG
binds | binds | GMBC649 (scFv) scFv: QVQLVQSGGGLVKPGGSLRLSCAASGFTFSDAWMNWVRQAPGKGLEWVGRIKSKGSGGTIDYAAPVKDRFTISRDDSKNTLYLQMNSLKTEDTALYYCTWDWDFYYGMNVWGRGTLVTVSSGGGGSGGGGSGGGGSQSVLTQPASVSGSPGQSITISCTGTSSDVGGYNYVSWYQQHPGKAPKLMIYEGSKRPSGVSNRFSGSKSGNTASLTISGLQAEDEADYYCSSYTTRSTRVFGGGTKLTVLG
binds | binds | GMBC651 (scFv) scFv: EVQLVESGGGLVQPGGSLRLSCAASGFTFSDAWMNWVRQAPGKGLEWVGRIKSKGSGGTIDYAAPVKDRFTISRDDSKNTLYLQMNSLKTEDTALYYCTWDWDFYYGMNVWGRGTMVTVSSGGGGSGGGGSGGGGSQSVLTQPASVSGSPGQSITISCTGTSSDVGGYNYVSWYQQHPGKAPKLMIYEGSKRPSGVSNRFSGSKSGNTASLTISGLQAEDEADYYCSSYTTRSTRVFGGGTKLTVLG
